Laboratory results reported in paper PMC7997880, “MED15 prion-like domain forms a coiled-coil responsible for its amyloid conversion and propagation” (Communications Biology, 2021).
Results are given in words; binding and its absence hold for the method and conditions named. Sequences can lack the tags named with a protein.

Target: GFP-MED15CC (human MED15 prion-like domain, MED15-PrLD, residues 141-316, fused at the C-terminus of GFP) (human)
Test: in vitro aggregation (synchronous light scattering, GFP fluorescence of the supernatant after centrifugation); 5 uM protein, 37 °C without agitation, 9 h, 20 mM Tris, 150 mM NaCl, with 2 M urea; both purified

binding: no binding (condition: with 2 M urea)
B1: GFP-MED15CC (human MED15 prion-like domain, MED15-PrLD, residues 141-316, fused at the C-terminus of GFP) (domain or fragment)
chain: MAVVSTATPQTQLQLQQVALQQQQQQQQFQQQQQAALQQQQQQQQQQQFQAQQSAMQQQFQAVVQQQQQLQQQQQQQQHLIKLHHQNQQQIQQQQQQLQRIAQLQLQQQQQQQQQQQQQQQQALQAQPPIQQPPMQQPQPPPSQALPQQLQQMHHTQHHQPPPQPQQPPVAQNQPS
notes: Mediator complex subunit 15 (MED15), human, prion-like domain with the Q-rich coiled-coil and Pro-rich regions, residues 141-316; No cleavage step is described; Dimer by SEC, native PAGE and DLS; source: E. coli BL21 Rosetta, pET21b, purified from the soluble fraction (two HisTrap Ni steps, RNase treatment, PD10); not shown: GFP, N-terminal, kept
